The source of these data is the supplement of paper PMC10331698.

± gives the standard deviation of the averaged measurements. Small differences around the control level are noise.

Common to all, as to test: level (log10 ratio to DMSO vehicle control); higher = higher biomarker level / cell amount than vehicle control
Compound in assay [1]: C=CC(=O)OCC(F)(F)C(F)(F)C(F)(F)COC(=O)C=C [1H,1H,5H,5H-Perfluoro-1,5-pentanediol diacrylate]
The note with it: 2200 nM; in DMSO. As for the experimental part: (§1)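 BioMAP Diversity Plus panel of 12 human primary cell co-culture systems (3C, 4H, LPS, SAg, BT, BF4T, BE3C, CASM3C, HDF3CGF, KF3CT, MyoF, Mphg). Compounds were added 1 h before stimulation and left for 24 h (MyoF 48 h; BT 72 h for soluble read-outs or 6 d for IgG). Biomarkers were read by ELISA, cytotoxicity by SRB, PBMC viability and proliferation by Alamar Blue. Each well value was divided by the mean of 8 DMSO control wells on the same plate and log10 transformed; duplicate blinded samples were tested at 4 concentrations.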

Compound in assay [2]: C=CC(=O)OCCC(F)(F)C(F)(F)C(F)(F)C(F)(F)C(F)(F)C(F)(F)C(F)(F)C(F)(F)F [8:2 Fluorotelomer acrylate]
The note with it: 2200 nM; in DMSO. As for the experimental part:
as §1

Compound in assay [3]: C=CC(=O)OCCC(F)(F)C(F)(F)C(F)(F)C(F)(F)F [2-(Perfluorobutyl)ethyl acrylate]
The conditions noted are these: 2200 nM; in DMSO. As for the experimental part: as §1

Compound in assay [4]: FC(F)(F)C(F)(C(F)(F)F)C(F)(F)C(F)(F)CC1CO1 [3-(Perfluoro-3-methylbutyl)-1,2-propenoxide]
The conditions noted are these: in DMSO. Here is the method: as §1

Compound in another assay: FC(F)(F)C(F)(F)C(F)(F)C(F)(F)C(F)(F)C(F)(F)I [Perfluoro-1-iodohexane]
The note with it: in DMSO. As for the experimental part: as §1

Compound in assay [5]: FC(F)(I)C(F)(F)C(F)(F)C(F)(F)C(F)(F)C(F)(F)I [1,6-Diiodoperfluorohexane]
The conditions noted are these: 2200 nM; in DMSO. Here is the method:
as §1

Compound in assay [6]: O=C(Cl)C(F)(F)C(F)(F)C(F)(F)C(=O)Cl [Hexafluoroglutaryl chloride]
The conditions noted are these: 2200 nM; in DMSO. As for the experimental part: as §1

Compound in assay [7]: O=C(O)C(F)(F)C(F)(F)C(F)(F)C(F)(F)C(F)(F)C(F)(F)C(F)(F)C(F)(F)C(F)(F)C(F)(F)C(F)(F)C(F)(F)C(F)(F)F [Perfluorotetradecanoic acid]
The conditions noted are these: in DMSO. As for the experimental part:
as §1

Compound in assay [8]: O=C(O)C=C(C(F)(F)F)C(F)(F)F [3,3-Bis(trifluoromethyl)-2-propenoic acid]
The conditions noted are these: in DMSO. Here is the method: as §1

Compound in assay [9]: O=S(=O)(O)C(F)(F)C(F)(F)C(F)(F)C(F)(F)C(F)(F)C(F)(F)F [Perfluorohexanesulfonic acid]
The note with it: 2200 nM; in DMSO. As for the experimental part: as §1

Compound in assay [10]: O=S(=O)(O)CCC(F)(F)C(F)(F)C(F)(F)C(F)(F)F [4:2 Fluorotelomer sulfonic acid]
The note with it: 2200 nM; in DMSO. Here is the method:
as §1

Compound in the next assay: OCC(F)(F)C(F)(F)C(F)(F)CO [Hexafluoroamylene glycol]
The note with it: 2200 nM; in DMSO. As for the experimental part: as §1

Compound in assay [11]: OCCCC(F)(F)C(F)(F)C(F)(F)C(F)(F)C(F)(F)C(F)(F)C(F)(F)F [7:3 Fluorotelomer alcohol]
The note with it: 2200 nM; in DMSO. Here is the method:
as §1

For SAg:Proliferation, the “level (log10)” value was -0.234 ± 0.075 in assay [1]; -0.0185 ± 0.00071 in assay [2]; 0.0035 ± 0.12 in assay [3]; 0.0535 ± 0.059 in assay [4] (740 nM); -0.001 ± 0.076 in assay [4] (2200 nM); -0.0275 ± 0.064 with Perfluoro-1-iodohexane (2200 nM). The “level (log10)” value is -0.031 ± 0.044 with Perfluoro-1-iodohexane (6700 nM); -0.055 ± 0.02 with Perfluoro-1-iodohexane (20000 nM); -0.0395 ± 0.04 in the assay with Perfluoro-1-iodohexane (60000 nM); -0.005 ± 0.0099 in assay [5]; 0.0315 ± 0.0064 in [6]; 0.01 ± 0.072 in [7] (740 nM). Also, the “level (log10)” value is -0.012 ± 0.02 in assay [7] (2200 nM); 0.046 ± 0.072 in assay [8] (2200 nM); 0.004 ± 0.0085 in assay [8] (6700 nM); -0.0715 ± 0.022 in assay [8] (20000 nM); -0.462 ± 0.032 in [8] (60000 nM); 0.0125 ± 0.012 in [9]. Besides, the “level (log10)” value in assay [10] was -0.0305 ± 0.087; with Hexafluoroamylene glycol, -0.0395 ± 0.066; in assay [11] it was 0.041 ± 0.0057.

Regarding HDF3CGF:CXCL11/I-TAC, the “level (log10)” value in assay [1] is -0.344 ± 0.096; in assay [2], 0 ± 0.028; in assay [3] it was -0.0245 ± 0.056; in assay [4] (740 nM), -0.004 ± 0.017; in assay [4] (2200 nM) it was -0.0125 ± 0.057; in the assay with Perfluoro-1-iodohexane (2200 nM), -0.013 ± 0.018. The “level (log10)” value in the assay with Perfluoro-1-iodohexane (6700 nM) is -0.0215 ± 0.011; with Perfluoro-1-iodohexane (20000 nM), -0.0305 ± 0.016; in the assay with Perfluoro-1-iodohexane (60000 nM) it was -0.183 ± 0.15; in assay [5], -0.043 ± 0.0085; in assay [6], 0.0035 ± 0.053; in assay [7] (740 nM), 0.005 ± 0.035. For the same test system, the “level (log10)” value in assay [7] (2200 nM) was 0.018 ± 0.028; in assay [8] (2200 nM) it was -0.019 ± 0.017; in [8] (6700 nM), -0.038 ± 0.011; in assay [8] (20000 nM), -0.0555 ± 0.035; in assay [8] (60000 nM), -0.033 ± 0.054; in assay [9] it was -0.0015 ± 0.023. The figures for the “level (log10)” value (in assay [10]; in the assay with Hexafluoroamylene glycol; in [11]) were -0.0415 ± 0.043, -0.0305 ± 0.035 and -0.0355 ± 0.025, respectively.

Turning to BE3C:CD87/uPAR, the “level (log10)” value in assay [1] is 0.013 ± 0.025; in assay [2] it was 0.0425 ± 0.013; in assay [3] it was 0.008 ± 0.025; in assay [4] (740 nM), 0.0175 ± 0.012; in [4] (2200 nM) it was -0.0015 ± 0.012; with Perfluoro-1-iodohexane (2200 nM), 0.017 ± 0.033. The “level (log10)” value with Perfluoro-1-iodohexane (6700 nM) was 0.0165 ± 0.018; with Perfluoro-1-iodohexane (20000 nM), 0.0035 ± 0.00071; with Perfluoro-1-iodohexane (60000 nM), 0.0465 ± 0.026; in assay [5], 0.016 ± 0.059; in [6] it was 0.0175 ± 0.021; in assay [7] (740 nM), 0.0115 ± 0.0064. The “level (log10)” value in assay [7] (2200 nM) was 0.0135 ± 0.00071; in assay [8] (2200 nM), -0.0085 ± 0.044; in [8] (6700 nM), -0.0365 ± 0.025; in assay [8] (20000 nM) it was -0.0635 ± 0.013; in assay [8] (60000 nM) it was -0.012 ± 0.013; in assay [9], 0.0105 ± 0.013. In addition, the “level (log10)” value in assay [10] stood at 0.015 ± 0.048; in the assay with Hexafluoroamylene glycol, 0.001 ± 0.0028; in assay [11], 0.025 ± 0.017.

For BE3C:SRB, the “level (log10)” value in [1] was 0.002 ± 0.0042; in [2] it was 0.008 ± 0.016; in [3], -0.002 ± 0.0014; in assay [4] (740 nM) it was -0.003 ± 0.0042; in assay [4] (2200 nM), -0.0045 ± 0.0035; in the assay with Perfluoro-1-iodohexane (2200 nM) it was -0.005 ± 0.0014. The “level (log10)” value with Perfluoro-1-iodohexane (6700 nM) is -0.0125 ± 0.005; in the assay with Perfluoro-1-iodohexane (20000 nM), 0.001 ± 0.017; in the assay with Perfluoro-1-iodohexane (60000 nM) it was 0 ± 0.013; in assay [5], -0.0015 ± 0.0021; in [6], 0.002 ± 0.0071; in assay [7] (740 nM), 0.0135 ± 0.012. Also, the “level (log10)” value in assay [7] (2200 nM) is -0.0015 ± 0.0078; in [8] (2200 nM) it was 0.005 ± 0.021; in assay [8] (6700 nM) it was -0.005 ± 0.0042; in assay [8] (20000 nM) it was -0.0025 ± 0.0035; in assay [8] (60000 nM), 0.01 ± 0.0057; in assay [9] it was 0.007 ± 0.024. In addition, the entries for the “level (log10)” value (in assay [10]; with Hexafluoroamylene glycol; in [11]) were 0.011 ± 0.02, 0.011 ± 0.016 and -0.0095 ± 0.0035, respectively.

As to BT:PBMC Cytotoxicity, the “level (log10)” value was -0.0735 ± 0.03 in assay [1]; 0.0055 ± 0.022 in [2]; -0.0355 ± 0.0064 in assay [3]; 0.0165 ± 0.021 in assay [4] (740 nM); 0.0095 ± 0.005 in [4] (2200 nM); 0.022 ± 0.031 with Perfluoro-1-iodohexane (2200 nM). Besides, the “level (log10)” value with Perfluoro-1-iodohexane (6700 nM) is 0.042 ± 0.014; with Perfluoro-1-iodohexane (20000 nM), -0.0045 ± 0.022; with Perfluoro-1-iodohexane (60000 nM) it was 0.0285 ± 0.0035; in assay [5], 0.0025 ± 0.025; in [6] it was 0.0045 ± 0.049; in [7] (740 nM) it was -0.005 ± 0.016. The “level (log10)” value in assay [7] (2200 nM) is -0.0075 ± 0.00071; in assay [8] (2200 nM), 0.03 ± 0.031; in assay [8] (6700 nM), 0.0065 ± 0.049; in [8] (20000 nM), 0.001 ± 0.02; in [8] (60000 nM) it was -0.009 ± 0.025; in [9], 0.0135 ± 0.012. For the same test system, the “level (log10)” value in assay [10] was -0.0005 ± 0.05; in the assay with Hexafluoroamylene glycol, 0.008 ± 0.0071; in assay [11], 0.053.

With 3C:CD62E/E-Selectin, the “level (log10)” value was -0.065 ± 0.034 in [1]; 0.0075 ± 0.04 in assay [2]; -0.024 ± 0.04 in assay [3]; -0.018 ± 0.018 in assay [4] (740 nM); -0.0015 ± 0.0021 in assay [4] (2200 nM); 0.013 ± 0.014 in the assay with Perfluoro-1-iodohexane (2200 nM). Further, the “level (log10)” value in the assay with Perfluoro-1-iodohexane (6700 nM) is -0.0025 ± 0.00071; in the assay with Perfluoro-1-iodohexane (20000 nM) it was -0.0165 ± 0.0035; with Perfluoro-1-iodohexane (60000 nM), -0.0025 ± 0.029; in [5], 0.0105 ± 0.011; in assay [6], -0.0035 ± 0.032; in assay [7] (740 nM), -0.0065 ± 0.0078. Further, the “level (log10)” value in [7] (2200 nM) was -0.013 ± 0.014; in [8] (2200 nM) it was -0.0385 ± 0.015; in [8] (6700 nM), -0.044 ± 0.0057; in [8] (20000 nM) it was -0.081; in assay [8] (60000 nM), -0.123 ± 0.026; in [9], -0.018 ± 0.037. Further, the “level (log10)” value in [10] was 0.015 ± 0.0099; in the assay with Hexafluoroamylene glycol, -0.0035 ± 0.00071; in assay [11], 0.002 ± 0.017.
